In PubChem BioAssay AID651640 (Broad Institute, 2012):
The campaign covered roughly 350,000 compounds. About 6,000 (1.7%) were called active. The inconclusive results got no clear call from the source; some entries with a clear call stand among them for comparison. No stated cut-off is given here; in the data, active means CPE inhibition above about 20% (passing the limit was not always enough); inconclusive means no clear call, values can overlap the other calls; tested in BHK-21 cells.

Experiment: protection of cells from dengue 2 killing – plate reader, single concentration, primary screen (AID 651640);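 further: 0% = median of neutral control wells and 100% = median of positive control wells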
Settings: DENV2-infected cells, cytopathic effect rescue, at 9.99 µM, active compounds read high

| SMILES | CPE inhibition |
| --- | --- |
| COc1ccc(NC(=O)C2CCCN(S(=O)(=O)c3cnc[nH]3)C2)cc1 (centres undefined) | inconclusive: 40.9% |
| CCCN(C)C[C@@H]1OCCCC[C@@H](C)Oc2ccc(N(C)C)cc2C(=O)N([C@H](C)CO)C[C@@H]1C | inconclusive: 38% |
| COc1ccccc1NCC(=O)NNC(C)C(=O)Nc1cccc(Cl)c1 (centres undefined) | inactive: -2.08% |
| COc1ccc2c(c1)CC[C@@H]1[C@@H]2CC[C@]2(C)[C@@H](C(C)=O)C[C@@H]12 | inconclusive: 26.6% |
| COc1ccc(-c2csc3ncnc(N4CCN(c5ccccc5Cl)CC4)c23)cc1 | inconclusive: 69.9% |
| COc1ccc(-c2c(C)nc3c(-c4ccc(F)cc4)cnn3c2N)cc1 | inconclusive: 52% |
| COc1ccc(S(=O)(=O)Nc2ccc3c(c2)C(=O)N([C@@H](C)CO)C[C@H](C)[C@@H](CN(C)Cc2ccc(Cl)c(Cl)c2)O3)cc1 | inconclusive: 41.5% |
| COc1cccc(NC(=O)N2CC3(C2)[C@H](c2ccccc2)[C@@H](CO)N3C(=O)C2CCCC2)c1 | inactive: 8.78% |
| COc1ccc(S(=O)(=O)Nc2ccc3c(c2)C(=O)N([C@H](C)CO)C[C@H](C)[C@@H](CN(C)Cc2ccc(C(=O)O)cc2)OCCCC[C@@H](C)O3)cc1 | active: 32.6% |
| Cc1ccccc1-c1n[nH]c(=S)n1C | inconclusive: 28.2% |
| Nc1nonc1C(=O)N/N=C/c1ccc(Br)o1 | inconclusive: 22.3% |
| Cc1ccc(NC(=O)c2ccc(Cl)c(S(=O)(=O)NCC3CCCO3)c2)c(O)c1 (centres undefined) | inconclusive: 29.3% |
| O=C(N[C@H]1CC[C@@H](CCNS(=O)(=O)c2ccc(F)cc2)O[C@H]1CO)C1CCCC1 | active: 21.4% |
| COc1ccc(CN(CCC(c2ccccc2)C2CCOC(C)(C)C2)C(C)=O)cc1 (centres undefined) | active: 102% |
| Cc1cc(O)c(C(C)C)cc1C1(c2cc(C(C)C)c(O)cc2C)OC(=O)c2ccccc21 | inactive: -0.0555% |
| CCN(CC)C(=O)C1=C(C)N(Cc2ccc(OC)cc2)C(=O)C(CC(=O)NCCCN(C)C)C1 (centres undefined) | inactive: -0.063% |
| CCNC(=O)c1ccc(N(C)S(=O)(=O)c2cccs2)cc1 | inconclusive: 57.9% |
| CC(C)(C)N1C(=O)c2ccc(C(=O)Nc3cc(C(=O)O)cc(C(=O)O)c3)cc2C1=O | inconclusive: 41.3% |
| O=C(NCc1ccccc1Br)c1cccs1 | inactive: 8.25% |
| COc1ccc(NC(=O)Nc2cccc3c2O[C@H](CN(C)Cc2ccccc2)[C@@H](C)CN([C@@H](C)CO)C3=O)cc1 | inconclusive: 21.1% |
| O=C(Nc1cccc(F)c1)N[C@@H]1CC[C@@H](CCNS(=O)(=O)c2cccc(Cl)c2)O[C@@H]1CO | inconclusive: 40.3% |
| Cc1ccc(S(=O)(=O)Nc2cccc3c2O[C@H](CN(C)Cc2ccc(C(=O)Nc4ccccc4N)cc2)[C@H](C)CN([C@H](C)CO)C3=O)cc1 | active: 21.1% |
| C[C@@H]1CN([C@H](C)CO)C(=O)c2cccc(NS(=O)(=O)c3cn(C)cn3)c2O[C@@H]1CN(C)C(=O)Nc1ccc2c(c1)OCO2 | inconclusive: 27.1% |
| O=C(NCc1ccco1)/C(=C\c1ccco1)NC(=O)c1ccccc1Cl | inconclusive: 24.2% |
| CN(c1ccc(OCC(=O)O)cc1)S(=O)(=O)c1ccc2ccccc2c1 | inconclusive: 31.2% |

| SMILES | CPE inhibition |
| --- | --- |
| C/C=C/c1ccc([C@@H]2[C@@H](CO)N(C(=O)c3ccccc3)C23CN(C(C)=O)C3)cc1 | active: 70.8% |
| O=C(Cn1ccc(NC(=O)OCc2ccccc2)nc1=O)NCCCn1ccnc1 | inconclusive: 27.9% |
| O=C1OC[C@H]2CCCN2C(=O)[C@@H](CC(=O)N(CCO)Cc2ccccc2)C/C=C\C[C@H]1Cc1ccc(F)cc1 | inconclusive: 57% |
| COc1ccc(CCC(=O)Nc2cc(S(=O)(=O)N3CCOCC3)ccc2OC(C)C)cc1 | active: 70.4% |
| COc1cc(CN2CC3(CCN(C(=O)c4cccnc4)CC3)c3c([nH]c4cc(OC)ccc34)[C@@H]2CO)cc(OC)c1 | inconclusive: 52% |
| O=C(Cc1ccsc1)NNC(=O)c1ccc(F)cc1 | inconclusive: 22.8% |
| COc1ccc2c3c(n(C)c2c1)[C@@H](CO)N(C(=O)C1CCCCC1)CC31CCN(C)CC1 | inconclusive: 57.5% |
| Cc1ccc(S(=O)(=O)Nc2ccc3c(c2)C(=O)N([C@@H](C)CO)C[C@H](C)[C@@H](CN(C)Cc2ccc(C(=O)O)cc2)O3)cc1 | inconclusive: 21.1% |
| CC1CCN(C(=O)COC(=O)CCC(=O)c2cccs2)CC1 | inconclusive: 49% |
| CC1CCCC(NC(=O)c2cccs2)C1C (centres undefined) | inconclusive: 41.1% |
| N#C[C@H]1[C@H](c2ccc(-c3cccc(F)c3)cc2)[C@@H](CO)N1c1nc(-c2ccccc2)cs1 | active: 38.2% |
| C/C(=N\NC(=O)CC(C)C)c1c(C(F)(F)F)[nH]n(-c2nc3ccccc3s2)c1=O | inconclusive: 34% |
| CC(C)C[C@H](NC(=O)c1nc[nH]c1C(=O)NCCCCCN)C(=O)OCc1ccccc1 | inconclusive: 61.8% |
| Cc1ccc(Cl)c(NC(=O)CSc2n[nH]c(=O)n2C2CC2)c1Cl | inconclusive: 24.4% |
| O=C(c1ccco1)N1CCN(c2ncnc3scc(-c4cccs4)c23)CC1 | inconclusive: 21% |
| C[C@H](CO)N1C[C@H](C)[C@H](CN(C)C(=O)Nc2ccc(F)cc2)OCCCC[C@H](C)Oc2ccc(NC(=O)c3ccccc3)cc2C1=O | active: 83.8% |
| COc1cccc(CNc2nc3cc(-c4cccc(Cl)c4)sc3c(=O)n2C)c1OC | inconclusive: 39.7% |
| COc1cccc(CNC(=O)CCCN2C(=O)C(c3ccccc3)Oc3cccnc32)c1OC (centres undefined) | inconclusive: 40.1% |
| O=C(C[C@@H]1C=C[C@H](NS(=O)(=O)c2ccc(F)cc2)[C@@H](CO)O1)NCCc1ccncc1 | inconclusive: 44.1% |
| O=S(=O)(Nc1cc(S(=O)(=O)N2CCOCC2)ccc1NCC1CCCO1)c1ccc(F)cc1 (centres undefined) | inconclusive: 26.4% |
| C[C@@H]1CCCCO[C@H](CN(C)C)[C@@H](C)CN([C@@H](C)CO)C(=O)c2cc(NS(=O)(=O)c3ccc(Cl)cc3)ccc2O1 | inactive: 7.74% |
| COc1ccc(C(C)=O)c(OCC(=O)NCCC2=CCCCC2)c1 | inconclusive: 41.7% |
| COc1ccc(NC(=O)N2C[C@@H](O)COC[C@@H]3O[C@H](CC(=O)NC4Cc5ccccc5C4)CC[C@H]32)cc1 | active: 99.8% |
| CN(C)CC(=O)N[C@H]1C=C[C@@H](CC(=O)NCCN2CCCCC2)O[C@@H]1CO | active: 58.6% |
| COc1ccc(-c2cc(C)nc(SCc3cccc(C(=O)O)c3)n2)cc1 | inactive: -0.674% |

| SMILES | CPE inhibition |
| --- | --- |
| CC(C)(C)c1csc(NC(=O)c2cccnc2Cl)n1 | inactive: 3.92% |
| COc1ccc(CNC(=O)COC(=O)c2ccc(Br)o2)cc1 | inconclusive: 20.5% |
| CC(C)NC(=O)N(C)C[C@@H]1Oc2ccc(NS(=O)(=O)c3ccc(Cl)cc3)cc2CC(=O)N([C@@H](C)CO)C[C@H]1C | inconclusive: 37.5% |
| Cn1c(=O)oc2cc(S(=O)(=O)N3CCCC(C(=O)NCCN4CCOCC4)C3)ccc21 (centres undefined) | active: 83.4% |
| CC(C)c1c(C(=O)N/N=C/c2ccsc2)nnn1-c1nonc1N | inconclusive: 27.4% |
| CCOC(=O)Nc1ccc2c(c1)C(=NNC(=S)NC)c1ccccc1-2 | inconclusive: 31.1% |
| Clc1ccc(-n2cc(-c3ccc(Br)cc3)[n+]3c2CCCCC3)cc1 | inactive: -1.26% |
| O=C(CCNC(=O)c1ccco1)NC(Cc1c[nH]c2ccccc12)C(=O)O (centres undefined) | inconclusive: 22.9% |
| Cc1ccccc1-c1ccc([C@@H]2[C@H](CO)N3CCCCN(C(=O)c4cccnc4)C[C@@H]23)cc1 | inconclusive: 27.5% |
| CN1c2ccc(-c3ccccc3F)cc2[C@@H]2[C@@H](CCN2C(=O)NC2CCCCC2)[C@H]1CO | inactive: -3.58% |
| Cc1ccc(S(=O)(=O)NC(=O)C2(C)CCN2C(=O)CCc2ccc(Cl)cc2Cl)nc1 (centres undefined) | inconclusive: 28% |
| Cc1ccc([N+](=O)[O-])c(OCCN2CCc3ccccc3C2)c1 | inactive: 2.28% |
| COC(CN(C)C(=O)c1ccc(CS(=O)(=O)c2ccccc2C)o1)OC | inactive: 12.1% |
| Cc1ccc(CN2CC(=O)N3[C@H](C2)[C@@H](c2ccc(Br)cc2)[C@@H]3CO)cc1 | inactive: -1.56% |
| C[C@H]1CN([C@@H](C)CO)C(=O)Cc2cc(NS(=O)(=O)c3ccccc3)ccc2O[C@@H]1CN(C)Cc1ccc(-c2ccccc2)cc1 | active: 40.1% |
| COCC(=O)Nc1ccc2c(c1)[C@H]1C[C@@H](CC(=O)OC)O[C@H](CO)[C@H]1O2 | inactive: 6.92% |
| COc1cccc(CN2CCCCN3[C@H](C2)[C@H](c2ccc(-c4cccnc4)cc2)[C@@H]3CO)c1 | inconclusive: 33.1% |
| O=C(NNc1c(Cl)cc(Cl)cc1Cl)C1CCC1 | inconclusive: 20.8% |
| COc1ccc(CN(C)C[C@H]2Oc3ccc(NC(=O)Cn4cnnn4)cc3CC(=O)N([C@H](C)CO)C[C@H]2C)cc1 | inactive: -4.1% |
| COCC(=O)N(C)C[C@H]1Oc2cc(C#C[C@H](C)O)ccc2S(=O)(=O)N([C@H](C)CO)C[C@@H]1C | inactive: -1.24% |
| COc1ccc(C(=O)Nc2ccnn2C2CCN(C(=O)C3CCOC3)CC2)cc1 (centres undefined) | inconclusive: 29.3% |
| NC(N)=Nc1ccc(C=C2C=Cc3ccccc32)cc1 | inconclusive: 21.9% |
| C[C@H](CO)N1C[C@H](C)[C@@H](CN(C)Cc2ccc(Oc3ccccc3)cc2)Oc2ccc(NC(=O)Cn3cnnn3)cc2CC1=O | active: 105% |
| O=C(NCC(=O)N1CCCCC1)c1ccc(Br)o1 | inconclusive: 20.9% |

Rewritten as labelled records: 3 of the compounds above
O=C(NCc1ccco1)/C(=C\c1ccco1)NC(=O)c1ccccc1Cl
  CPE inhibition: inconclusive: 24.2%
N#C[C@H]1[C@H](c2ccc(-c3cccc(F)c3)cc2)[C@@H](CO)N1c1nc(-c2ccccc2)cs1
  CPE inhibition: active: 38.2%
COc1ccc(C(C)=O)c(OCC(=O)NCCC2=CCCCC2)c1
  CPE inhibition: inconclusive: 41.7%

Three entries out of the list, sorted by count of non-hydrogen atoms, low to high:

| SMILES | CPE inhibition |
| --- | --- |
| Clc1ccc(-n2cc(-c3ccc(Br)cc3)[n+]3c2CCCCC3)cc1 | inactive: -1.26% |
| Cc1ccccc1-c1ccc([C@@H]2[C@H](CO)N3CCCCN(C(=O)c4cccnc4)C[C@@H]23)cc1 | inconclusive: 27.5% |
| COc1ccc(CN(C)C[C@H]2Oc3ccc(NC(=O)Cn4cnnn4)cc3CC(=O)N([C@H](C)CO)C[C@H]2C)cc1 | inactive: -4.1% |
